Laboratory results: PubChem BioAssay AID743454 (Peter MacCallum Cancer Centre, 2014)
This is a random part of about 18,000 deposited reagents. In the full data, 450 (2.5%) were called active. 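Single biological run; no consistent viability z cut-off exists, so the class columns, not z-scores, define the calls.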

Aim: 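Search for knock-downs that restore vorinostat killing in resistant colon cancer cells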 (primary screen)
System: human HCT116-VR colon cancer cells, selected for vorinostat resistance
Knock-down reagent: siRNA pool against human genes, 40 nM siRNA pool
Time to read-out: vorinostat for 24 h, read-out about 72 h after transfection
Conditions: vorinostat at 2.5 µM final
Measurement: 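Two measures, CellTiter-Fluor viability and luminescent caspase 3/7 activity, each as fold change against same-plate mock wells, mean of duplicates, then screen-wide robust z-score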
Direction: viability robust z-score: higher = more viable cells than screen typical; caspase robust z-score: higher = more caspase 3/7 activity than screen typical
Rule for the call: 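Hits are knock-downs in viability class RV1/RV2 or caspase class CA1/CA2, excluding ones that killed cells in the no-drug cell-count arm; hits then retested with single siRNAs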

gene knocked down,viability hit class,caspase hit class,viability robust z-score,caspase robust z-score,Outcome
TPM2,no change,no change,-0.04,-0.9,inactive
PYGM,no change,no change,1.83,1,inactive
SDR16C5,no change,no change,0.5,-0.66,inactive
DIP2C,no change,no change,2.13,-0.21,inactive
VANGL1,no change,no change,1.27,-1.02,inactive
DNAH9,no change,no change,-0.55,2.18,inactive
TMEM74,no change,no change,-0.29,-0.48,inactive
ZNF562,no change,no change,1.14,-1.07,inactive
TCF3,no change,no change,-1.31,2.38,inactive
SNRPB2,no change,no change,-0.02,-0.57,inactive
TMCO1,no change,no change,-0.12,0.2,inactive
ABHD16B,no change,CA1 (caspase activation),-0.99,5.48,active
MARS1,no change,no change,-0.32,1.33,inactive
SEC61A1,no change,no change,-1.96,1.55,inactive
IRAK1BP1,no change,no change,0.32,-0.77,inactive
DZANK1,no change,no change,-1.56,0.05,inactive
PDE7A,no change,no change,0.9,0.53,inactive
TYW2,no change,no change,0.57,-1.05,inactive
SLC25A29,no change,no change,-0.35,1.11,inactive
TXNDC5,no change,no change,0.53,0.66,inactive
GALC,no change,no change,0.75,-0.53,inactive
ZNF708,no change,no change,0.67,-1.17,inactive
MAZ,no change,no change,-0.18,3.65,inactive
CENPU,no change,no change,-0.37,-0.08,inactive
OR5AC2,no change,no change,0.45,-0.99,inactive
CRYBA4,no change,no change,0.19,1.82,inactive
EXOSC10,no change,no change,-2.54,-1.23,inactive
WDR49,no change,no change,0.3,-1.23,inactive
PRICKLE1,no change,no change,-0.55,-0.82,inactive
PEX11G,no change,no change,-0.2,0.57,inactive
TRIM22,no change,no change,0.79,0.91,inactive
SUPT5H,no change,no change,-1.48,1.48,inactive
C4orf17,no change,no change,0.76,1.14,inactive
MAJIN,no change,no change,0.16,0.18,inactive
SRP54,no change,no change,-1.25,-0.56,inactive
TTPA,no change,no change,-1.27,2.04,inactive
EXOSC4,no change,no change,-0.08,-0.18,inactive

Hits, among the entries above:
gene knocked down,viability hit class,caspase hit class,viability robust z-score,caspase robust z-score,Outcome
ABHD16B,no change,CA1 (caspase activation),-0.99,5.48,active

Next reagents:
gene knocked down,viability hit class,caspase hit class,viability robust z-score,caspase robust z-score,Outcome
NOC4L,no change,no change,-1.16,-0.53,inactive
HYAL3,no change,no change,0.82,-0.18,inactive
PPP1R21,no change,no change,-0.57,-0.15,inactive
GLRA4,no change,no change,-0.43,1.25,inactive
LGR5,no change,no change,0.91,0.87,inactive
CYP1A2,no change,no change,-1.61,2.05,inactive
ZNF234,no change,no change,0.59,-0.24,inactive
SLC39A13,no change,no change,-0.12,0.11,inactive
STARD13,no change,no change,0.82,2.46,inactive
ANKRD44,no change,no change,0.6,-0.52,inactive
NCKAP5L,no change,no change,-0.82,2.62,inactive
SPATA21,no change,no change,0.88,1.35,inactive
ABHD6,no change,no change,0.68,-0.12,inactive
BMS1,no change,no change,-0.08,-0.58,inactive
BLOC1S6,no change,no change,0.89,-0.78,inactive
CEP120,no change,no change,-0.08,1.23,inactive
MRPL50,no change,no change,0.42,-0.65,inactive
PCDH17,no change,no change,0.04,0.62,inactive
PDGFA,no change,no change,0.15,-0.45,inactive
CSF2RB,no change,no change,-0.97,1.07,inactive
